# Results reported in patent US5138035A (Centre National de la Recherche Scientifique, priority 1988, dated 1992).
# Assay: general procedure: solution-phase peptide synthesis; DCC
# Settings: late stage modification step
row,Substance,step yield
1,"PEPTIDE1{[5Am2ClMeBz].G.G.G.G.F}$PEPTIDE1,PEPTIDE1,1:R1-6:R2$$$V2.0",58%
2,"PEPTIDE1{[5Am2PhMeSMeBz].G.G.G.G.K}$PEPTIDE1,PEPTIDE1,1:R1-6:R2$$$V2.0",48%

# Strings that start with PEPTIDE1 are HELM notation: dots part the residues, brackets hold end groups and non-standard residues.
